Results: US20130090457A1
These are yes or no findings as the source states them, for the method shown. Some binding calls cover weakened binding; strength is not graded here.

By UniProt entry, the sequences of proteins in these tests, tags left out. Where a name states a change or a piece, a line headed by the entry shows the natural chain unless it says otherwise.
UniProt Q99MB1: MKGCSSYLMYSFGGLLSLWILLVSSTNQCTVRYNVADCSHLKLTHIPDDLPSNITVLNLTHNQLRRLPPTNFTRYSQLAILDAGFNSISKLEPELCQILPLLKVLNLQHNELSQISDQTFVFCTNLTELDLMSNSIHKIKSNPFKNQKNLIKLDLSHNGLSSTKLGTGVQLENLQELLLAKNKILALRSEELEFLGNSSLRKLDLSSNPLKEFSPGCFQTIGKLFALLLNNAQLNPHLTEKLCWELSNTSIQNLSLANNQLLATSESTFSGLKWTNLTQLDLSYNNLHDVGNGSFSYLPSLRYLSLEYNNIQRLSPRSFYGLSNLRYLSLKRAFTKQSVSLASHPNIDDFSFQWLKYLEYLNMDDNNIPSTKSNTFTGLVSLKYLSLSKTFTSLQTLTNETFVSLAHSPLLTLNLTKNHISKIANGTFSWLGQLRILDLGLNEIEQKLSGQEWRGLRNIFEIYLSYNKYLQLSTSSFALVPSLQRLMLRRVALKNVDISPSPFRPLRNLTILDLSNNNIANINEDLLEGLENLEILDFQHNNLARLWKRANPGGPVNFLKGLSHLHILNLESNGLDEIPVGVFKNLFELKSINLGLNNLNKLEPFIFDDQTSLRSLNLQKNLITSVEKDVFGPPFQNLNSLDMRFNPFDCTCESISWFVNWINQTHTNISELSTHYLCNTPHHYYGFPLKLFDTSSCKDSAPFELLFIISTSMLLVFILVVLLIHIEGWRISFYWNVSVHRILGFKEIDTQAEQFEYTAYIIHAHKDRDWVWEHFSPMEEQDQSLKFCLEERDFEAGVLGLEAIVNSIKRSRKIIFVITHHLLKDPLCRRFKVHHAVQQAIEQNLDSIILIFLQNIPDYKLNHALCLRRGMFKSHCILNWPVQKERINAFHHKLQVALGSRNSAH

How the values were obtained:
[1] = target: full-length murine TLR3 on cells (mouse) (UniProt Q99MB1); assay: flow cytometry, surface staining of thioglycollate-elicited peritoneal macrophages of C57BL/6 versus TLR3KO mice with Alexa-Fluor 647 conjugated mAb c1811
[2] = target: full-length murine TLR3 on cells (mouse) (UniProt Q99MB1); assay: flow cytometry, surface staining of peritoneal macrophages

binding [1]: binds | binding [2]: binds
B1: mAb c1811 (antibody, mouse IgG1, kappa, V domains shown)
VH: EVQLVASGGGLVKPGASLKLSCVASGFTFSDYWMAWVRQTPGKPMEYIGDIKSDGSKVNYAPSLKNRFTISRDNARTTLYLQMSNVRSEDTATYYCNRDIGPDWYFDFWGPGTMVTVSS
VL: DIQMTQSPTSLSASLGETVTIECRASEDIYNGLAWYQQKPGKSPQLLIYDSNSLHTGVPSRFSGRGSGTQYSLRINSLQSEDVASYFCQQYYDYPLTFGSGTKLEIKR
